# Publication PMC3313078
# Chains of the proteins cited; added tags and fusions are not shown. Lines headed by an entry give the natural chain unless they say otherwise; changes in a name come on top.
# UniProt Q92993: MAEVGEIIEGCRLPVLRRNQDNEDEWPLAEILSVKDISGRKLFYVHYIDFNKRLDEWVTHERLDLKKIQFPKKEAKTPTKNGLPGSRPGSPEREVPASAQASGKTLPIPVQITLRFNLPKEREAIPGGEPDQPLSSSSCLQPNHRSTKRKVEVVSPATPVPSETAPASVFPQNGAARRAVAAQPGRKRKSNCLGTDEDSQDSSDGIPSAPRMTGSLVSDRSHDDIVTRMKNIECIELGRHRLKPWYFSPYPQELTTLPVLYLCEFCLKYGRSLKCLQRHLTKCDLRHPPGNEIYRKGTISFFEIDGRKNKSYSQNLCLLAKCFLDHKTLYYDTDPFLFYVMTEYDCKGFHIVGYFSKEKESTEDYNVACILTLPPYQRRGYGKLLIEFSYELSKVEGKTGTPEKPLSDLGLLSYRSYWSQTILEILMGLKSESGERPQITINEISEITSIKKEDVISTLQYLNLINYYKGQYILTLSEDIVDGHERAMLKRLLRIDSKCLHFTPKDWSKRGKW
# These are yes or no findings as the source states them, for the method shown. Binding can be weak; no strength is given. Where a sequence is shown, tags or fusion partners need not be part of it.
# Molecular target: T1, GAL4 DNA-binding domain fusion of SseF 50-66 (S. typhimurium) (UniProt O84951)
# T1 sequence: QIRQQRDYAIHFMQYTI
# Experiment: two-hybrid; direct test in yeast AH109: SseF constructs fused to the GAL4 binding domain, TIP60 isoforms fused to the GAL4 activation domain; growth on -Leu-Trp-His + 15 mM 3-AT, β-galactosidase in Miller units
substance,measurement,value
TIP60 fused to the GAL4 activation domain (isoform not named for the SseF deletion series) (from UniProt Q92993),binding,binds
